Assay [1] addresses T1, epitope-tagged LDL2 (pLDL2::LDL2-FLAG transgenic line) (A. thaliana) (UniProt Q9LID0).
T1 sequence: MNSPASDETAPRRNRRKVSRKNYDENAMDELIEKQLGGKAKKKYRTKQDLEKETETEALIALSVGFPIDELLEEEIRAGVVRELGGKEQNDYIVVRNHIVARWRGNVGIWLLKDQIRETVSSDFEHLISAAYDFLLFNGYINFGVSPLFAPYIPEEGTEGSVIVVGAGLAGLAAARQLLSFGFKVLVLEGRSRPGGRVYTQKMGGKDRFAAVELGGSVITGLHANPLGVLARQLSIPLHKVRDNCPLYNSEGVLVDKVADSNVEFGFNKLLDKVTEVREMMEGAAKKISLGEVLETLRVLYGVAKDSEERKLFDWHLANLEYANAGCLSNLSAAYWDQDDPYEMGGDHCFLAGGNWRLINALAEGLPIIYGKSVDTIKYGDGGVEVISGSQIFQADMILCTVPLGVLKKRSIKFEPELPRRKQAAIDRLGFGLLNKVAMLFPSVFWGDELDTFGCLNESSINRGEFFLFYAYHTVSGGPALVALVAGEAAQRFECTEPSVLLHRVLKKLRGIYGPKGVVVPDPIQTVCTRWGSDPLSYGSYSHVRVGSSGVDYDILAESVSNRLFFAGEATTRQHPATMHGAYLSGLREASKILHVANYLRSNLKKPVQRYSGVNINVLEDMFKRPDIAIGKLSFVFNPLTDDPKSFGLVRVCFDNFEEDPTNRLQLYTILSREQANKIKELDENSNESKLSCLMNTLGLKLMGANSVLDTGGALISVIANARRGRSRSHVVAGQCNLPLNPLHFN
In words: affinity purification with mass spectrometry; extract of about 2 g seedlings of FLAG- or GFP-tagged lines, benzonase-treated; anti-FLAG or anti-GFP antibody on Dynabeads protein G, 2 h at 4°C; 25 mM HEPES-KOH pH 7.5, 100 mM NaCl; nontransgenic plants as negative control.

By UniProt entry, the sequences of proteins in these tests, tags left out. Where a name states a change or a piece, a line headed by the entry shows the natural chain unless it says otherwise.
UniProt Q9LME6: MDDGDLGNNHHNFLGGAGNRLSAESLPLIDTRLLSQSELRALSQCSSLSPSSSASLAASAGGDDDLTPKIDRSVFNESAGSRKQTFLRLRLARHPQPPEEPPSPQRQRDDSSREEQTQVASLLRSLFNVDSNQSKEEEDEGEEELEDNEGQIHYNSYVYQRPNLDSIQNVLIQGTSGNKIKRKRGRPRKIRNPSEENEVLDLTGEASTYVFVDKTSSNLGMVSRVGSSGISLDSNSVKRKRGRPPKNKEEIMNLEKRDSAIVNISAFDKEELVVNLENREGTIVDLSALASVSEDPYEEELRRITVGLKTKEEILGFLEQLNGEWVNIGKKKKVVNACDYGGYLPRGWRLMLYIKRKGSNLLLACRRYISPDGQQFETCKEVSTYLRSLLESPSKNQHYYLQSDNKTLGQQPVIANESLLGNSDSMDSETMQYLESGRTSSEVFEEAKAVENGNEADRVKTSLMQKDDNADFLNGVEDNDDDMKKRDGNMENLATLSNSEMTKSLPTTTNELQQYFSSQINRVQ

For assay [2], the target named is epitope-tagged MBD8 (transgenic lines) (A. thaliana) (UniProt Q9LME6). Described as above.

These are yes or no findings as the source states them, for the method shown. In cells and extracts the contact can be indirect. Here binding means that the protein was enriched with, or labelled near, the bait; the list need not be complete. For some assays here: Where a sequence is shown, tags or fusion partners need not be part of it.

On to “methyl-CpG-binding domain protein 8 (MBD8), endogenous (from UniProt Q9LME6)”, for which the binding entry in assay [1] is on record as “binds”.

B1: LDL2, endogenous (enzyme, UniProt Q9LID0 1-746)
chain: MNSPASDETAPRRNRRKVSRKNYDENAMDELIEKQLGGKAKKKYRTKQDLEKETETEALIALSVGFPIDELLEEEIRAGVVRELGGKEQNDYIVVRNHIVARWRGNVGIWLLKDQIRETVSSDFEHLISAAYDFLLFNGYINFGVSPLFAPYIPEEGTEGSVIVVGAGLAGLAAARQLLSFGFKVLVLEGRSRPGGRVYTQKMGGKDRFAAVELGGSVITGLHANPLGVLARQLSIPLHKVRDNCPLYNSEGVLVDKVADSNVEFGFNKLLDKVTEVREMMEGAAKKISLGEVLETLRVLYGVAKDSEERKLFDWHLANLEYANAGCLSNLSAAYWDQDDPYEMGGDHCFLAGGNWRLINALAEGLPIIYGKSVDTIKYGDGGVEVISGSQIFQADMILCTVPLGVLKKRSIKFEPELPRRKQAAIDRLGFGLLNKVAMLFPSVFWGDELDTFGCLNESSINRGEFFLFYAYHTVSGGPALVALVAGEAAQRFECTEPSVLLHRVLKKLRGIYGPKGVVVPDPIQTVCTRWGSDPLSYGSYSHVRVGSSGVDYDILAESVSNRLFFAGEATTRQHPATMHGAYLSGLREASKILHVANYLRSNLKKPVQRYSGVNINVLEDMFKRPDIAIGKLSFVFNPLTDDPKSFGLVRVCFDNFEEDPTNRLQLYTILSREQANKIKELDENSNESKLSCLMNTLGLKLMGANSVLDTGGALISVIANARRGRSRSHVVAGQCNLPLNPLHFN
Turning to B1, the binding result in assay [2] is recorded as “binds”.
